# In PubChem BioAssay AID540276 (National Center for Advancing Translational Sciences (NCATS), 2011):
# Values joined by “and” are separate entries in the source; they are usually repeats but may differ in a detail not shown here. Equal entries are not always repeated. Hit rate of the full screen: of about 300,000 compounds, about 5,400 (1.8%) were called active. Inconclusive means that the source gave no clear call. Such entries were picked first, then a sample of the others. Calls follow the shape of the full dose curve; tested in HEK293 cells. Where the call is inconclusive, the potency comes from a doubtful curve fit.
# Experiment: qHTS for inhibitors of binding or entry into cells for Marburg Virus
# Conditions: Marburg virus pseudotyped entry inhibition, cell reporter; activity change, negative = inhibition: at 37.8 µM (top of the series) unless noted
# % is scaled to controls: 0 for no effect and ±100 for the full control effect; potency is read from the fitted curve at half-maximal effect.
SMILES,Potency,"activity change, negative = inhibition"
O=C(Nc1ccc(S(=O)(=O)N2CCOCC2)cc1)c1ccccc1,"inconclusive: 7.08 µM [activator, partial curve, poor fit]",
O=C(/C=C/c1cn(-c2ccccc2)nc1-c1cccnc1)c1ccco1,"inconclusive: 11.2 µM [inhibitor, partial curve, poor fit]",
CCOC(=O)N1CCC(NC(=O)CSCc2cnn(-c3ccccc3)c2-n2cccc2)CC1,,inactive: -19.6%
COc1ccc(C2CC(C(F)(F)F)n3nc(C(=O)NCc4cn(C)nc4C)c(Cl)c3N2)cc1 (stereo unspecified),"inconclusive: 3.26 µM [inhibitor, partial curve]",
Cc1ccccc1CSCCC(=O)NCCc1ccccc1,"inconclusive: 2.51 µM [activator, partial curve, poor fit]",
NS(=O)(=O)c1cc(C(=O)Nc2ccc3c(c2)CCC3)ccc1Cl,"inconclusive: 1.41 µM [activator, partial curve, poor fit]",
COc1ccc(NC(=O)OCC(C)C)cc1OC,"inconclusive: 0.259 µM [activator, partial curve, poor fit]",
O=C(c1ccc(-n2cnnn2)cc1)N1CCN(C(c2ccccc2)c2ccccc2)CC1,"inconclusive: 4.47 µM [inhibitor, full curve, poor fit]",
O=C(Cc1ccc([N+](=O)[O-])cc1)Nc1cc(C(F)(F)F)cc(C(F)(F)F)c1,"inconclusive: 3.55 µM [inhibitor, partial curve, poor fit]",
CCOC(=O)c1cccc(NC(=O)CSc2nnc(-c3ccoc3C)n2CC)c1,,inactive: -10.6%
COc1ccc(CCN2C(=O)N(c3ccc(C)cc3)C(=O)C2CC(=O)Nc2ccc(F)cc2)cc1 (stereo unspecified),,inactive: -11.8% [at 46.1 µM]
CNC(=O)c1cc2c(s1)-c1ccccc1CC2,,inactive: 9.08%
Nc1cc(=O)nc(SCC(=O)Nc2ccc(F)cc2)n1-c1cccc(Cl)c1,"inconclusive: 3.55 µM [activator, single point]",
CCSc1nc(-c2ccccc2)nc2c1CCCC2,"inconclusive: 10 µM [inhibitor, partial curve, poor fit]",
CCc1noc(C)c1C(=O)N1CCOCC1,"inconclusive: 23.1 µM [activator, partial curve, poor fit]",
O=C(COC(=O)C12CC3CC(CC(C3)C1)C2)Nc1nc2c(F)c(F)c(F)cc2s1,"inconclusive: 35.5 µM [inhibitor, partial curve, poor fit]",
CC1CCCN(c2c(S(=O)(=O)c3ccccc3)cnc3ccc(Cl)cc23)C1 (stereo unspecified),,inactive: -8.7% [at 46.1 µM]
Cc1ccc(C(=O)OCC(=O)c2c[nH]c3ccccc23)cc1NC(=O)c1ccco1,"inconclusive: 10 µM [inhibitor, partial curve, poor fit]",
O=C(CS(=O)c1ccc(C(F)(F)F)cc1[N+](=O)[O-])Oc1ccccc1 (stereo unspecified),"inconclusive: 11.2 µM [inhibitor, partial curve, poor fit]",
CCc1ccc2nc3n[nH]c(N)c3cc2c1,,inactive: 4.56%
COc1ccc(Oc2nc(SC)nc3ccsc23)cc1,"inconclusive: 17.8 µM [inhibitor, partial curve, poor fit]",
CCOC(=O)C1CCN(S(=O)(=O)c2ccc3[nH]c(=O)c(=O)[nH]c3c2)CC1,,inactive: 2.41% [at 46.1 µM]

SMILES,Potency,"activity change, negative = inhibition"
[O-]/C(=C(\C(=S)Nc1ccc(SC(F)F)cc1)[n+]1ccccc1)c1cc(Cl)ccc1Cl,"inconclusive: 35.5 µM [inhibitor, single point]",
Cc1cc(-c2nnco2)c(C)n1-c1ccccc1,"inconclusive: 1.12 µM [activator, single point]",
COc1ccc(OCCN(C)Cc2c(O)ccc3ccccc23)cc1,,inactive: -6.48% [at 46.1 µM]
CCCCCCCC[n+]1cccc(C(=O)N2c3c(nc(N)[nH]c3=O)NC(C)C2C)c1 (stereo unspecified),"inconclusive: 12.6 µM [activator, single point]",
O=C(NC1CCCCC1)c1ccc(S(=O)(=O)NCc2cccnc2)cc1,,inactive: -18.8%
CCn1cnc2cc(NCc3cccc(OC)c3O)ccc21,,inactive: -4.26%
O=C(CSc1ccccc1C(=O)N1CCN(c2ccc([N+](=O)[O-])cc2)CC1)N1CCCC1,"inconclusive: 6.31 µM [inhibitor, partial curve, poor fit]",
COc1cc(C(=O)N2CCC(NC(=O)C(Cc3ccccc3C)NC(C)=O)CC2)cc(OC)c1OC (stereo unspecified),"inconclusive: 0.206 µM [activator, partial curve, poor fit]",
CCC(C)(C)n1nnnc1C(c1ccc2ncccc2c1)N1CCCC(C)C1 (stereo unspecified),"inconclusive: 5.62 µM [inhibitor, full curve, poor fit]",
CCn1c(SCC(=O)N2c3ccccc3Sc3ccccc32)nnc1-c1ccco1,"inconclusive: 4.11 µM [inhibitor, full curve]",
Cc1ccc(Cl)cc1NC(=O)N1CCC2(CC1)Oc1ccccc1C(=O)N2Cc1ccccc1F,,inactive: -1.62% [at 46.1 µM]
CN(C)c1nc(-c2ccccc2)ns1,"inconclusive: 3.16 µM [activator, single point]",
CCOc1ccccc1/C=N/NC(=O)c1cccc(S(=O)(=O)N(CC)CC)c1,,inactive: 17.3% [at 46.1 µM]
Cn1c(=O)n(C)c2cc([N+](=O)[O-])c(N3CCN(S(=O)(=O)c4ccc5ccccc5c4)CC3)cc21,"inconclusive: 23.1 µM [inhibitor, partial curve, poor fit]",
CNC(=O)C1Cc2ccccc2CN1S(=O)(=O)c1ccc(OC)c(OC)c1 (stereo unspecified),"inconclusive: 7.94 µM [activator, partial curve, poor fit]",
CCOC(=O)N1CCN(Cc2nc3cc(NC(=O)C(C)C)ccc3n2C(C)C)CC1,"inconclusive: 3.55 µM [inhibitor, single point]",
Cc1ccsc1/C=N/n1cnc2sc(C)c(C)c2c1=O,,inactive: 17.7%
Cc1noc(C)c1S(=O)(=O)Nc1ccc(C(=O)O)cc1,"inconclusive: 0.631 µM [inhibitor, partial curve, poor fit]",
CCOc1ccc(Cl)cc1S(=O)(=O)N1CCN(c2ccc(C)c(C)c2)CC1,"inconclusive: 16.4 µM [inhibitor, single point]",
Cc1ccc2c(c1)c(CC(=O)Nc1ccc(C)c(F)c1)c(C(=O)O)n2C,"inconclusive: 29.1 µM [inhibitor, single point] and inconclusive: 35.5 µM [inhibitor, single point]",
O=c1c2ccccc2c(-c2ccccc2)nn1Cc1c(Cl)cccc1Cl,,inactive: -17.9%
Cc1snc2sc(C(=O)c3ccc(Br)cc3)c(N)c12,,inactive: 30.1%

SMILES,Potency,"activity change, negative = inhibition"
CC1CCN(c2ccc(NC(=O)c3ccccc3[N+](=O)[O-])cc2)CC1,"inconclusive: 35.5 µM [activator, single point]",
Cc1oc(-c2cc(F)ccc2F)nc1CN1CCN(c2cnccn2)CC1,,inactive: 0.0779% [at 46.1 µM]
O=C(c1ccc2c(c1)N(Cc1c(F)cccc1Cl)C(=O)c1ccccc1S2)N1CCOCC1,,inactive: -13.9% [at 46.1 µM]
COc1ccc(-c2nnc(SCC(=O)O)n2C)cc1OC,"inconclusive: 7.94 µM [activator, partial curve, poor fit]",
COc1ccc(C(=O)N(Cc2ccco2)C(C(=O)NC2CCCC2)c2ccc(O)cc2)cc1OC (stereo unspecified),"inconclusive: 6.51 µM [inhibitor, partial curve, poor fit]",
COc1ccc(NC(=O)c2ccc(OCC3CCCO3)cc2)cc1Cl (stereo unspecified),"inconclusive: 3.16 µM [activator, single point]",
Cc1ccc(-n2ncc3c2CCCC3NC(=O)c2ocnc2C)cc1C (stereo unspecified),"inconclusive: 2.24 µM [inhibitor, full curve, poor fit]",
Cc1c(CC(=O)NC(C)C)c(=O)oc2cc3c(cc12)CCC(C)(C)O3,,inactive: 11.2% [at 46.1 µM]
COc1ccc(C(=O)NCc2nnc(SCC(=O)N3CCc4ccccc43)n2C2CCCCC2)cc1,"inconclusive: 0.794 µM [activator, partial curve]",
CN1CCN(S(=O)(=O)c2cccc(C(=O)NC3CCCC3)c2)CC1,"inconclusive: 1.58 µM [activator, partial curve, poor fit]",
Cc1cccc2cc(C(c3nnnn3Cc3ccccc3)N3CCN(C)CC3)c(=O)[nH]c12 (stereo unspecified),"inconclusive: 29.1 µM [inhibitor, single point]",
CCc1nn(CC(=O)NCCCN2CCN(CC)CC2)c(=O)c2cc3occc3n12,"inconclusive: 22.4 µM [inhibitor, single point]",
CN(C)/C=N/c1sc2c(c1C#N)CCCCC2,"inconclusive: 3.98 µM [activator, partial curve]",
COc1cccc2sc(N(CCCN(C)C)C(=O)C(c3ccccc3)c3ccccc3)nc12,active: 10 µM,
CCOc1ccc(S(=O)(=O)c2cn(Cc3ccccc3C)c3ccc(OC)cc3c2=O)cc1,"inconclusive: 35.5 µM [inhibitor, single point]",
Cc1nc2ccc(NC(=O)N3CCN(c4ccccn4)CC3)cc2s1,,inactive: -0.759%
COc1ccc(-n2nc(C(=O)NCC(=O)N3CCCCCC3)c3ccccc3c2=O)cc1Cl,"inconclusive: 35.5 µM [inhibitor, partial curve, poor fit]",
CN(C)S(=O)(=O)c1ccc(N2CCCC2)c(C(=O)Nc2ccc(F)cc2F)c1,,inactive: -9.23%
COc1ccccc1N(CC(=O)Nc1ccc2c(c1)OCO2)S(=O)(=O)c1ccc(C)cc1,,inactive: -5.15% [at 46.1 µM]
O=S(=O)(Nc1ncn[nH]1)c1ccc(Cl)cc1,"inconclusive: 6.31 µM [activator, full curve, poor fit]",
CCN(CC)c1ncnnc1-c1ccccc1,,inactive: 6.74%
O=C(c1ccc(Cl)nc1)N1CCN(C/C=C/c2ccccc2)CC1,"inconclusive: 11.2 µM [inhibitor, single point]",

# Grouped by structure: the entries above containing two or more sulfur atoms.
SMILES,Potency,"activity change, negative = inhibition"
COc1ccc(Oc2nc(SC)nc3ccsc23)cc1,"inconclusive: 17.8 µM [inhibitor, partial curve, poor fit]",
[O-]/C(=C(\C(=S)Nc1ccc(SC(F)F)cc1)[n+]1ccccc1)c1cc(Cl)ccc1Cl,"inconclusive: 35.5 µM [inhibitor, single point]",
CCn1c(SCC(=O)N2c3ccccc3Sc3ccccc32)nnc1-c1ccco1,"inconclusive: 4.11 µM [inhibitor, full curve]",
Cc1ccsc1/C=N/n1cnc2sc(C)c(C)c2c1=O,,inactive: 17.7%
Cc1snc2sc(C(=O)c3ccc(Br)cc3)c(N)c12,,inactive: 30.1%
